Patent US10801050B2, “Microorganism modified for the assimilation of levulinic acid” (priority 2015, dated 2020)

B1: ACSA_CUPNH: Acetyl-coenzyme A synthetase (EC 6.2.1.1), putative candidate for reaction A1 (protein, UniProt P31638 1-660, looked up)
Acetyl-coenzyme A synthetase: MSAIESVMQEHRVFNPPEGFASQAAIPSMEAYQALCDEAERDYEGFWARHARELLHWTKPFTKVLDQSNAPFYKWFEDGELNASYNCLDRNLQNGNADKVAIVFEADDGSVTRVTYRELHGKVCRFANGLKALGIRKGDRVVIYMPMSVEGVVAMQACARLGATHSVVFGGFSAKSLQERLVDVGAVALITADEQMRGGKALPLKAIADDALALGGCEAVRNVIVYRRTGGKVAWTEGRDRWMEDVSAGQPDTCEAEPVSAEHPLFVLYTSGSTGKPKGVQHSTGGYLLWALMTMKWTFDIKPDDLFWCTADIGWVTGHTYIAYGPLAAGATQVVFEGVPTYPNAGRFWDMIARHKVSIFYTAPTAIRSLIKAAEADEKIHPKQYDLSSLRLLGTVGEPINPEAWMWYYKNIGNERCPIVDTFWQTETGGHMITPLPGATPLVPGSCTLPLPGIMAAIVDETGHDVPNGNGGILVVKRPWPAMIRTIWGDPERFRKSYFPEELGGKLYLAGDGSIRDKDTGYFTIMGRIDDVLNVSGHRMGTMEIESALVSNPLVAEAAVVGRPDDMTGEAICAFVVLKRSRPTGEEAVKIATELRNWVGKEIGPIAKPKDIRFGDNLPKTRSGKIMRRLLRSLAKGEEITQDTSTLENPAILEQLKQAQ
B2: RPIA_CUPNH (protein, UniProt Q0K980 1-228, looked up)
Ribose-5-phosphate isomerase A: MTQDELKALVAQAAADYVKQEVPEGAVLGVGTGSTANLFIDAVAAFKERFAGAVSSSEASTRRLQQHGFKVLDLNEVDEIPVYVDGADEIDASGAMIKGGGGALTREKIVASVAKRFVCIADGSKLVQTMGTFPLPVEVIPMARAAVARKLQALGGQPRLRMTKEGGIYKTDNGNVILDVAGLKIDDPRGLEQAVNQVPGVVTVGLFALRGADVLLLGTGDGVQRTDY
B3: PHBB_CUPNH (protein, UniProt P14697 1-246, looked up)
Acetoacetyl-CoA reductase: MTQRIAYVTGGMGGIGTAICQRLAKDGFRVVAGCGPNSPRREKWLEQQKALGFDFIASEGNVADWDSTKTAFDKVKSEVGEVDVLINNAGITRDVVFRKMTRADWDAVIDTNLTSLFNVTKQVIDGMADRGWGRIVNISSVNGQKGQFGQTNYSTAKAGLHGFTMALAQEVATKGVTVNTVSPGYIATDMVKAIRQDVLDKIVATIPVKRLGLPEEIASICAWLSSEESGFSTGADFSLNGGLHMG
B4: RRF_CUPNH (protein, UniProt Q0KA19 1-186, looked up)
Ribosome-recycling factor: MSVADTKKSVEQKMQKSIEAFKADLAKIRTGRAHTGLLDHVQVDYYGSMVPISQVAAVGLADARTITVQPWEKKMVGAVEKAIRDCDLGLNPATMGEVIRVPMPALTEERRKELTKVVKGEAEGAKVAVRNLRRDANEQFKKLVKDKTISEDDERRGQDEVQKLTDKYVAEIDKMVAEKEKEIMTV
B5: ACOA_CUPNH (protein, UniProt P27745 2-333, looked up)
Acetoin:2,6-dichlorophenolindo …: TARASQDSAALPLDKETLLTVYRKMRTIRDFEERLHVDFGRGDIPGFVHLYAGEEAAGVGILHHLNDGDRIASTHRGHGHCIAKGVDPVAMMKEIYGKKGGSCNGKGGSMHIADLSKGMMGANGILGAGAPLICGAALAAKFRGKGEVGITFCGDGASNQGTFLESLNLAAVWNLPVIFVIENNGYAESTSRDYGTAVDSYVDRAAGFGIPGVTVDGTDFFAVHEAAGEVIRRAREGGGPSLLECKMVRFYGHFEGDAQTYRAAGELDDIRANKDCLKLFGRAVTQAGVVAREELDTIDREVAALIEHAVQEAKAAPQPGPEDLLTDVYVSY
B6: ACP_CUPNH (protein, UniProt Q0K8M2 1-79, looked up)
Acyl carrier protein: MDNIEQRVKKIVAEQLGVAEADIKNESSFVNDLGADSLDTVELVMALEDEFGMEIPDEEAEKITTVQQAIDYATAHVKA
B7: PNP_CUPNH (protein, UniProt Q0KCT4 1-723, looked up)
Polyribonucleotide …: MSMFNKIVKEFQWGQHTVRMETGEIARQAGGAVLVDVEDTVVLATVVAAKNPKPGQDFFPLTVDYIEKTYAAGKIPGGFFKREGRPSENETLTSRLIDRPLRPLFPEGFYNDVQVVIHVVSLNPEVPADIPALIGASAALAVSGIPFNGPVGAARVGYKDGQYLLNPTRSQLATSDLDLVVAGTERAVLMVESEANQLSEDVMLGAVVYGHEQMQIAINAIHELVREGGKPEWDWAPAAKNEPLIAKVTEVALPLLQEAYQLRQKSARSQKLKEVNANVAAALAAAGVEADKVEVGNIMFDLEAKIVRGQVLAGEPRIDGRDTRTVRPIEIRSSVLPRAHGSALFTRGETQALVVATLGTKSDEQIIDALAGEYRDRFMLHYNMPPFATGETGRVGSPKRREIGHGRLAKRALIPVLPKDDEFAYTIRLVSEITESNGSSSMASVCGGCLALMDAGVPVKAHVAGVAMGLILEGNKFAVLTDILGDEDHLGDMDFKVAGTDNGITALQMDIKVQGITKEIMQVALAQAREGRLHILHKMQEAMGHARTELSAHAPRMITMKIHPDKIREVIGKGGSTIQALTKETGTTIDIQEDGTITIASTSTDGMAEAKRRIEGITAEAEVGKIYAGTVLKLLDFGAIVNILPGKDGLLHISEIVNERVKDIKDWLKEGQQVRVKLIQADEKGRLRLSLKAALTEEGGSISPINAGEAAAPAAPAEGSEQQ
B8: ACOB_CUPNH (protein, UniProt P27746 2-338, looked up)
Acetoin:2,6-dichlorophenolindo …: ARKLSIKLAINEAIDQEMTRDPSVIMLGEDIVGGAGADGEKDAWGGVLGVTKGLYAKHGDRLLDTPLSESAYVGAAIGAAACGMRPIAELMFIDFMGVCFDQIFNQAAKFRYMFGGKAETPVVIRAMVGAGFRAAAQHSQMLTPLFTHIPGLKVVCPSTPYDTKGLLIQAIRDNDPVIFCEHKNLYGLEGEVPEGAYAIPFGEANIVRDGKDVSIVTYGLMVHRALEAAATLAKEGIEAEIVDLRTLSPLDMDTVLESVENTGRLVVVDEASPRCNIATDISAQVAQQAFGALKAGIEMVCPPHTPVPFSPTLEDLYIPSAAQIAAAARKTMKGGKH
B9: RPOA_CUPNH (protein, UniProt Q0K645 1-326, looked up)
DNA-directed RNA polymerase …: MQTALLKPKIIAVEPLGDHHAKVVMEPFERGYGHTLGNALRRVLLSSMVGYAPTEVTIAGVVHEYSTIDGVQEDVVNLLLNLKGVVFKLHNRDEVTVSLRKDGEGVVTAADIELPHDVEIINPNHVIAHLSAGGKLDMQIKVEQGRGYVPGNVRKFGDESGKVIGRIVLDASFSPVRRVSYAVESARVEQRTDLDKLVMNIETDGVISPEEAIRQSARILVDQLSVFAALEGTESAAEAASSRTPQIDPILLRPVDDLELTVRSANCLKAENIYYIGDLIQRTENELLKTPNLGRKSLNEIKEVLASRGLTLGMKLENWPPAGLEK
B10: ACOC_CUPNH (protein, UniProt P27747 2-374, looked up)
Dihydrolipoyllysine-residue …: ATEISPTIIPIVMPKWGLSMKEGTVNAWLVDEGTEITVGLPILDVETDKIANAVEAPDAGTLRRKVAQAGDVLPVKALLGVLAPAEVSDAQIDDYVAAYETPADDAGEEDAAAAYQFADVDGIRVRYARKGGGAETVLFIHGFGGDLDNWLFNLDPLADAYTVVALDLPGHGQSSPRLAGTTLAQMAGFVARFMDETGIEAAHVVGHSMGGGVAAQLAVDAPQRVLSVALVSPVGFGDAVNSGYTEGFVSAQSRRELKPVVELLFADAGLVSRQMLDDLLRYKRLDGVTEALTALGQGLFGGGRQSEQPGQRLANSGKRVLVVWGGQDQIIPAAHAEAAPPGATVKVFADAGHMSQMEKANDFNALLKKHLGG
B11: RPOC_CUPNH (protein, UniProt Q0K607 1-1415, looked up)
DNA-directed RNA polymerase …: MKALLDLFKQVQQEEQFDAIKIGLASPEKIRSWSYGEVKKPETINYRTFKPERDGLFCAKIFGPIKDYECLCGKYKRLKHRGVICEKCGVEVTLAKVRRERMGHIELAAPTAHIWFLKSLPSRLGMVLDMTLRDIERVLYFEAFVVIEPGMTPLKKSQIMSEDDYLAKCDEYGEGEFVAMMGAEGIRELLRGIDIEKQIEQIRAELQATGSEAKIKKFAKRLKVLEAFQRSGIKPEWMILEVLPVLPPELRPLVPLDGGRFATSDLNDLYRRVINRNNRLKRLLELKAPEIIVRNEKRMLQEAVDSLLDNGRRGKAMTGANKRPLKSLAEMIKGKGGRFRQNLLGKRVDYSGRSVIVVGPTLKLHQCGLPKLMALELFKPFIFHKLETMGIATTIKAAKKEVESQTPVVWDILEEVIREHPVMLNRAPTLHRLGIQAFEPVLIEGKAIQLHPLVCAAFNADFDGDQMAVHVPLSLEAQMEARTLMLASNNVLFPANGDPSIVPSQDVVLGLYYTTRDKINGRGEGMTFADISEVIRAYENKEVELASRVNVRITEYELVDKDAEGDARFAPKITLQATTVGRAILSEILPKGLPFSVLNKPLKKKEISRLINTAFRKCGLRETVIFADKLLQSGFRLATRAGISIAIDDMLVPPQKEKIIAEASAKVKEYDKQYMSGLVTDQERYNNVVDIWGAAGDQVGKAMMEQLQHEDVVDREGKTVKQESFNSIYMMADSGARGSAAQIRQLAGMRGLMAKPDGSIIETPITANFREGLNVLQYFISTHGARKGLADTALKTANSGYLTRRLVDVTQDLVVVEDDCGTSNGVAMKALVEGGEVIEALRDRILGRVTVADVVNPETQETAIEAGTLLDEDLVELIDNIGVDEVKVRTPLSCDTRYGLCGKCYGRDLGRGVLVNSGEAVGVIAAQSIGEPGTQLTMRTFHIGGAASRAAVASSVEAKATGTVRFTATMRYVTNAKGELIVISRSGEALITDDHGRERERHKIPYGATLLVQDGQAIKAGTQLATWDALTRPIVSEYTGTTKFENVEEGVTVAKQMDEVTGLSTLVVIDAKRRTAATKGIRPQVKLLDANGQEVKIPGTDHSVTIGFQVGALITVKDGQQVHVGEVLARIPTESQKTRDITGGLPRVAELFEARSPKDAAVLAEVTGTTSFGKDTKGKQRLVITDLDGNAHEFLIAKEKQVLVHDGQVVNKGEMIVEGPADPHDILRLKGIEELAHYIVDEVQDVYRLQGVKINDKHIEVIVRQMLRRVQIADVGDTKFIPGEQVERSELLDENDRVIAEGKRPATYENLLLGITKASLSTDSFISAASFQETTRVLTEAAIMGKTDDLRGLKENVIVGRLIPAGTGLAYHRARKAREASERERAQAIAEEEQSLFIEPAPVVQATTEGEGDNA

What follows are molecules tested on Ralstonia eutropha DSM428 (assay: Quantitative proteomics of Ralstonia eutropha DSM428 cultivated with or without levulinic acid (nanoLC-MS/MS)). Settings: Ralstonia eutropha DSM428, LB rich medium, 5 g/L vs 0 g/L levulinic acid; up-regulated = quantity at least multiplied by 2.
Assay type: cell-based
In the case of B1, the “expression level in response to levulinic acid (protein abundance, % of total proteins)” value is reported as “not overexpressed”.

Same assay, conditions: Ralstonia eutropha DSM428, shake flasks, LB rich medium, 0 g/L levulinic acid; nanoLC-MS/MS protein abundance
B2 was tested, and the “% of total proteins Without LA” value was 0.11 % of total proteins.
In the case of B3, the “% of total proteins Without LA” value is reported as 1.14 % of total proteins.
In the case of B4, the “% of total proteins Without LA” value is reported as 0.27 % of total proteins.
For B1, the “% of total proteins Without LA” value was 0.52 % of total proteins.
B5 was tested, and the “% of total proteins Without LA” value was 0.23 % of total proteins.
In the case of B6, the “% of total proteins Without LA” value is reported as 0.33 % of total proteins.
With B7 the “% of total proteins Without LA” value was 0.59 % of total proteins.
B8 was tested, and the “% of total proteins Without LA” value was 0.42 % of total proteins.
In the case of B9, the “% of total proteins Without LA” value is reported as 1.12 % of total proteins.
In the case of B10, the “% of total proteins Without LA” value is reported as 0.29 % of total proteins.
B11 was tested, and the “% of total proteins Without LA” value was 1.75 % of total proteins.

Same assay, conditions: Ralstonia eutropha DSM428, shake flasks, LB rich medium, 5 g/L levulinic acid; nanoLC-MS/MS protein abundance
For B2, the “% of total proteins With LA” value was 0.13 % of total proteins.
In the case of B3, the “% of total proteins With LA” value is reported as 0.85 % of total proteins.
In the case of B4, the “% of total proteins With LA” value is reported as 0.20 % of total proteins.
B1 was tested, and the “% of total proteins With LA” value was 0.33 % of total proteins.
B5 was tested, and the “% of total proteins With LA” value was <0.06 % of total proteins.
With B6 the “% of total proteins With LA” value was 0.42 % of total proteins.
In the case of B7, the “% of total proteins With LA” value is reported as 0.61 % of total proteins.
In the case of B8, the “% of total proteins With LA” value is reported as <0.06 % of total proteins.
For B9, the “% of total proteins With LA” value was 1.07 % of total proteins.
For B10, the “% of total proteins With LA” value was <0.06 % of total proteins.
B11 was tested, and the “% of total proteins With LA” value was 1.69 % of total proteins.
